Measurements taken from patent US20230051715A1 (MABWELL THERAPEUTICS, published 2023).
Numbering of substitutions follows the chain as printed. Names may count otherwise. Results are given in words; binding and its absence hold for the method and conditions named. Some entries that bind do so weakly or less than the wild type. Blank lines part the entries; values can stand above or below the binder they belong to.

Legend:
[1] = biological target: T1, human C1s mutant M20 (A320S) (human, UniProt P09871 16-688); experiment: ELISA, mutant coated on plate
T1 construct: The entry is the mutant itself
T1 sequence: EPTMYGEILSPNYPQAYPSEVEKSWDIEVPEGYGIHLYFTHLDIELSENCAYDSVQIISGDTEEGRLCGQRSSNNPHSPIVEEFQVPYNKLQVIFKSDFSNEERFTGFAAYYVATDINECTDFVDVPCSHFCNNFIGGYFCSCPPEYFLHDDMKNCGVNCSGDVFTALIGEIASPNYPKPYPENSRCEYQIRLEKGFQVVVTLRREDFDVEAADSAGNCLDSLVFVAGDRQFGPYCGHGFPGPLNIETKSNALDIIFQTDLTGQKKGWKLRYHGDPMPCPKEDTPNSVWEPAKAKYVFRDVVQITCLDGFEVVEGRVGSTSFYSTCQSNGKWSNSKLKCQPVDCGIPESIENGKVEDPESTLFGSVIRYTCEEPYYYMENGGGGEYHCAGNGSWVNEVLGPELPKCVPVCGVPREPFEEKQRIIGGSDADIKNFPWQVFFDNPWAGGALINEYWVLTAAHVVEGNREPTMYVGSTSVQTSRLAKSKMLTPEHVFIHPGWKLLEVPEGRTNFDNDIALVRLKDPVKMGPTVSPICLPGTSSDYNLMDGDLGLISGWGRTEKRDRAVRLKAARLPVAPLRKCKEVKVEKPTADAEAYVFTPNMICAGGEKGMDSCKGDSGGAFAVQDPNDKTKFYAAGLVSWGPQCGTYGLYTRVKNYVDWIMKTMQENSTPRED

[2] = biological target: T2, active human C1s (CompTech A104 C1s Enzyme) (human) (UniProt P09871); experiment: BLI (Octet RED96e), antibody on AHC biosensor, C1s in solution
T2 sequence (looked up): T1 sequence with S319A

[3] = biological target: T2, active human C1s (CompTech A104 C1s Enzyme) (human); experiment: BLI (Octet RED96e), antibody on AHC biosensor, active human C1s in solution
[4] = biological target: T2, active human C1s (CompTech A104 C1s Enzyme) (human); experiment: ELISA, C1s coated on plate

binding [1]: binds
B1: Anti-C1s antibody hz2-8 (H1L2 G80A) (antibody, V domains shown)
VH: QVQLVQSGAEVKKPGASVKVSCKASGFNIKEYYMHWVRQAPEQGLEWMGWIDPENADTIYAQKFQGRVTITADTSTNTAYMELSSLRSEDTAVYYCARSRLFFAYWGQGTLVTVSS
VL: DIQMTQSPKSLSASVGDRVTITCRASQDVRTALDWYQQKPGQSPKLLIYSASYRYSGVPSRFSGSGSGTDFTLTISSLQPEDFATYYCQQQYTTPYTFGQGTKLEIKR
notes: Humanized variant with G80A in HC CDR2 (already in the entry), human IgG1 / kappa

binding [2]: binds
binding [1]: binds
binding [3]: binds
binding [4]: binds
B2: Anti-C1s antibody hz2-8 (H1L2 G80A/T82A) (antibody, V domains shown)
VH: B1 VH with T58A
VL: B1 VL
notes: Humanized variant with G80A and T82A in HC CDR2 (already in the entry), human IgG1 / kappa

binding [2]: binds
binding [1]: binds
binding [3]: binds
binding [4]: binds
B3: Anti-C1s antibody hz2-7(H1L2) (antibody, V domains shown)
VH: EVQLLESGGGLVQPGGSLRLSCAASGFTFSNYFMNWVRQAPGKGLEWVSEIRLKFTNYATHYADSVKGRFTISRDDSKSTLYLQMNSLRAEDTAVYYCTRDYGSRNGYFDYWGQGTLVTVSS
VL: DIVMTQTPLSLPVTPGEPASISCRSSKSLLHSNGNTFLYWFLQKPGQSPQLLIYRMSNLASGVPDRFSGSGSGTDFTLKISRVEAEDVGVYYCMQHLEYPYTFGGGTKLEIKR
notes: Humanized, human IgG1 / kappa; also called hz2-7(1L2)
